No constants are given. Whether binding was seen depends on the method and setting. Binding seen in cells or lysates may run through a third protein. Some results given as binding are weak or reduced against the parent protein; the word gives no strength. Sequences can lack the tags named with a protein.
T1: His-tagged DacA (E. coli) (UniProt P0AEB2)
T1 sequence: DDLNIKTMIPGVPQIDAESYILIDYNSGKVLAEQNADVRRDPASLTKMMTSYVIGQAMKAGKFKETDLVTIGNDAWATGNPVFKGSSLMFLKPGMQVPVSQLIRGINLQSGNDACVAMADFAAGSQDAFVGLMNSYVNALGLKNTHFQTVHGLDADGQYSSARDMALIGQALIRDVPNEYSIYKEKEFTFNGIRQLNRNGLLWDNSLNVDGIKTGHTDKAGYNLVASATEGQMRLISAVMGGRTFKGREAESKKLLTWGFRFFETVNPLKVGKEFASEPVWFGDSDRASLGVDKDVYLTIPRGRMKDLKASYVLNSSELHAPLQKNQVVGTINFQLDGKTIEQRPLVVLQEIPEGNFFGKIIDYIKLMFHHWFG

T2: His-tagged DacA(ΔC) (E. coli) (UniProt P0AEB2)
T2 sequence: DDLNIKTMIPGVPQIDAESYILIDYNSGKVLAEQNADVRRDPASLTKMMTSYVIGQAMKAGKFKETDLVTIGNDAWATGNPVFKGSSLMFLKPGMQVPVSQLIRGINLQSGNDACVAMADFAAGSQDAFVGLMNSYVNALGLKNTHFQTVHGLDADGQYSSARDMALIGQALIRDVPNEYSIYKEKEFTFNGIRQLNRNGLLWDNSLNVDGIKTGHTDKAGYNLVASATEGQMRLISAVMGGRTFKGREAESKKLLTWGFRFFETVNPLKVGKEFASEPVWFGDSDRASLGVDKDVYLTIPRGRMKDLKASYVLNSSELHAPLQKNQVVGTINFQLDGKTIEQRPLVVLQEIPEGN

B1: PBP3-Flag (chromosomal PBP3 with three Flag-tags at the C-terminus) (enzyme, UniProt P0AD68 1-577)
chain: MKAAAKTQKPKRQEEHANFISWRFALLCGCILLALAFLLGRVAWLQVISPDMLVKEGDMRSLRVQQVSTSRGMITDRSGRPLAVSVPVKAIWADPKEVHDAGGISVGDRWKALANALNIPLDQLSARINANPKGRFIYLARQVNPDMADYIKKLKLPGIHLREESRRYYPSGEVTAHLIGFTNVDSQGIEGVEKSFDKWLTGQPGERIVRKDRYGRVIEDISSTDSQAAHNLALSIDERLQALVYRELNNAVAFNKAESGSAVLVDVNTGEVLAMANSPSYNPNNLSGTPKEAMRNRTITDVFEPGSTVKPMVVMTALQRGVVRENSVLNTIPYRINGHEIKDVARYSELTLTGVLQKSSNVGVSKLALAMPSSALVDTYSRFGLGKATNLGLVGERSGLYPQKQRWSDIERATFSFGYGLMVTPLQLARVYATIGSYGIYRPLSITKVDPPVPGERVFPESIVRTVVHMMESVALPGGGGVKAAIKGYRIAIKTGTAKKVGPDGRYINKYIAYTAGVAPASQPRFALVVVINDPQAGKYYGGAVSAPVFGAIMGGVLRTMNIEPDALTTGDKNEFV
B2: PBP2-Flag (chromosomal PBP2 with three Flag-tags at the C-terminus) (enzyme, UniProt P0AD65 1-633)
chain: MKLQNSFRDYTAESALFVRRALVAFLGILLLTGVLIANLYNLQIVRFTDYQTRSNENRIKLVPIAPSRGIIYDRNGIPLALNRTIYQIEMMPEKVDNVQQTLDALRSVVDLTDDDIAAFRKERARSHRFTSIPVKTNLTEVQVARFAVNQYRFPGVEVKGYKRRYYPYGSALTHVIGYVSKINDKDVERLNNDGKLANYAATHDIGKLGIERYYEDVLHGQTGYEEVEVNNRGRVIRQLKEVPPQAGHDIYLTLDLKLQQYIETLLAGSRAAVVVTDPRTGGVLALVSTPSYDPNLFVDGISSKDYSALLNDPNTPLVNRATQGVYPPASTVKPYVAVSALSAGVITRNTTLFDPGWWQLPGSEKRYRDWKKWGHGRLNVTRSLEESADTFFYQVAYDMGIDRLSEWMGKFGYGHYTGIDLAEERSGNMPTREWKQKRFKKPWYQGDTIPVGIGQGYWTATPIQMSKALMILINDGIVKVPHLLMSTAEDGKQVPWVQPHEPPVGDIHSGYWELAKDGMYGVANRPNGTAHKYFASAPYKIAAKSGTAQVFGLKANETYNAHKIAERLRDHKLMTAFAPYNNPQVAVAMILENGGAGPAVGTLMRQILDHIMLGDNNTDLPAENPAVAAAEDH
B3: PBP1b-Flag (chromosomal PBP1b with three Flag-tags at the C-terminus) (enzyme, UniProt P02919 1-844)
chain: MAGNDREPIGRKGKPTRPVKQKVSRRRYEDDDDYDDYDDYEDEEPMPRKGKGKGKGRKPRGKRGWLWLLLKLAIVFAVLIAIYGVYLDQKIRSRIDGKVWQLPAAVYGRMVNLEPDMTISKNEMVKLLEATQYRQVSKMTRPGEFTVQANSIEMIRRPFDFPDSKEGQVRARLTFDGDHLATIVNMENNRQFGFFRLDPRLITMISSPNGEQRLFVPRSGFPDLLVDTLLATEDRHFYEHDGISLYSIGRAVLANLTAGRTVQGASTLTQQLVKNLFLSSERSYWRKANEAYMALIMDARYSKDRILELYMNEVYLGQSGDNEIRGFPLASLYYFGRPVEELSLDQQALLVGMVKGASIYNPWRNPKLALERRNLVLRLLQQQQIIDQELYDMLSARPLGVQPRGGVISPQPAFMQLVRQELQAKLGDKVKDLSGVKIFTTFDSVAQDAAEKAAVEGIPALKKQRKLSDLETAIVVVDRFSGEVRAMVGGSEPQFAGYNRAMQARRSIGSLAKPATYLTALSQPKIYRLNTWIADAPIALRQPNGQVWSPQNDDRRYSESGRVMLVDALTRSMNVPTVNLGMALGLPAVTETWIKLGVPKDQLHPVPAMLLGALNLTPIEVAQAFQTIASGGNRAPLSALRSVIAEDGKVLYQSFPQAERAVPAQAAYLTLWTMQQVVQRGTGRQLGAKYPNLHLAGKTGTTNNNVDTWFAGIDGSTVTITWVGRDNNQPTKLYGASGAMSIYQRYLANQTPTPLNLVPPEDIADMGVDYDGNFVCSGGMRILPVWTSDPQSLCQQSEMQQQPSGNPFDQSSQPQQQPQQQPAQQEQKDSDGVAGWIKDMFGSN
B4: overexpressed full-length PBP1b (enzyme, UniProt P02919 1-844)
chain: B3 chain
B5: PBP1a-Flag (chromosomal PBP1a with three Flag-tags at the C-terminus) (enzyme, UniProt P02918 1-850)
chain: MKFVKYFLILAVCCILLGAGSIYGLYRYIEPQLPDVATLKDVRLQIPMQIYSADGELIAQYGEKRRIPVTLDQIPPEMVKAFIATEDSRFYEHHGVDPVGIFRAASVALFSGHASQGASTITQQLARNFFLSPERTLMRKIKEVFLAIRIEQLLTKDEILELYLNKIYLGYRAYGVGAAAQVYFGKTVDQLTLNEMAVIAGLPKAPSTFNPLYSMDRAVARRNVVLSRMLDEGYITQQQFDQTRTEAINANYHAPEIAFSAPYLSEMVRQEMYNRYGESAYEDGYRIYTTITRKVQQAAQQAVRNNVLDYDMRHGYRGPANVLWKVGESAWDNNKITDTLKALPTYGPLLPAAVTSANPQQATAMLADGSTVALSMEGVRWARPYRSDTQQGPTPRKVTDVLQTGQQIWVRQVGDAWWLAQVPEVNSALVSINPQNGAVMALVGGFDFNQSKFNRATQALRQVGSNIKPFLYTAAMDKGLTLASMLNDVPISRWDASAGSDWQPKNSPPQYAGPIRLRQGLGQSKNVVMVRAMRAMGVDYAAEYLQRFGFPAQNIVHTESLALGSASFTPMQVARGYAVMANGGFLVDPWFISKIENDQGGVIFEAKPKVACPECDIPVIYGDTQKSNVLENNDVEDVAISREQQNVSVPMPQLEQANQALVAKTGAQEYAPHVINTPLAFLIKSALNTNIFGEPGWQGTGWRAGRDLQRRDIGGKTGTTNSSKDAWFSGYGPGVVTSVWIGFDDHRRNLGHTTASGAIKDQISGYEGGAKSAQPAWDAYMKAVLEGVPEQPLTPPPGIVTVNIDRSTGQLANGGNSREEYFIEGTQPTQQAVHEVGTTIIDNGEAQELF
B6: overexpressed full-length PBP1a (enzyme, UniProt P02918 1-850)
chain: B5 chain

biological target: T1, His-tagged DacA (E. coli); test: pull-down

Row | binding | Binder
1 | binds | B1
2 | binds | B2
3 | binds | B3
4 | binds | B4
5 | binds | B5
6 | binds | B6

biological target: T2, His-tagged DacA(ΔC) (E. coli); test: pull-down

Row | binding | Binder
7 | no binding | B1
8 | no binding | B2
9 | no binding | B3
10 | no binding | B4
11 | no binding | B5
12 | no binding | B6

Source: paper doi:10.1101/2022.04.04.487088
